Measured values from patent US10094834B2, “Method of selecting individualized brain cancer therapy” (TURUN YLIOPISTO, priority 2012, dated 2018).
At least one structure is not confirmed: it was looked up by name or label, or the drawing left a doubt.

Tested on: T98G glioblastoma cells
Assay: Apoptosis assay by sub-G0/G1 fraction estimation (nuclear fragmentation, PI/FACS)
Assay type: cell-based, human
Settings: T98G cells depleted of PME-1 (PME-1 siRNA 48 hrs), drug treatment 24 hrs
Procedure: The percentage of the sub-G0/G1 fraction containing fragmented nuclei stained with Propidium iodide (PI) was taken as a measure of apoptotic cells. 3.5-4×10^4 cells were plated in 24-well plates, transfected with siRNA for 48 hrs, and then treated with indicated concentration of test compounds in fresh media. After 24 hrs of treatment, both floating and adherent cells were harvested by centrifugation. Cell pellets were resuspended in 400 μl of hypotonic PI buffer, containing 40 mM Tri-sodium citrate (Merck), 0.3% Triton X-100 (Sigma-Aldrich) and 50 μg/ml Propidium iodide (Sigma-Aldrich) in PBS, and incubated at room temperature for 10 minutes in dark. The flow cytometric analysis of PI stained nuclei was performed and the recorded data was analyzed using a FACScan flow cytometer and software (Becton Dickinson) respectively.
In experiments using pan-caspase inhibitor, cells were kept in growth media containing 30 μM Z-VAD-FMK starting from 18 hrs after transfection till the PI staining.
The T98G cells transfected with siRNA for 48 hrs were given drug treatments for 24 hrs and were subsequently lysed, and their nuclei were stained using hypotonic propidium iodide buffer. The lysates were analysed for changes in the sub-G0/G1 fraction of fragmented nuclei by flow cytometry (FACS) (FIG. 1B). Condensation and fragmentation of nucleus is a key biochemical feature of apoptosis and sub-G0/G1 analysis has been widely used for detection of apoptosis (FEBS Lett., 1986, 194(2):347-50; Cytometry, 1991, 12(4):323-329; Nature Protocols, 2006, 1:1458-1461).

SMILES | apoptotic nuclear fragmentation (sub-G0/G1 fraction)
Cn1nnc2c(C(N)=O)ncn2c1=O [TMZ, Temozolomide] | moderate
CCN(CC)CCNC(=O)c1c(C)[nH]c(/C=C2\C(=O)Nc3ccc(F)cc32)c1C [Sunitinib] | moderate
O=c1cc(N2CCOCC2)oc2c(-c3ccccc3)cccc12 [LY 294002] | moderate
